Reference: patent publication US20210171654A1
No constants are given. Whether binding was seen depends on the method and setting. Some entries that bind do so weakly or less than the wild type.

Amino acid sequences for entries named in this document (tags omitted). A change or cut given only in a name is not applied to a line headed by its entry.
UniProt P78324: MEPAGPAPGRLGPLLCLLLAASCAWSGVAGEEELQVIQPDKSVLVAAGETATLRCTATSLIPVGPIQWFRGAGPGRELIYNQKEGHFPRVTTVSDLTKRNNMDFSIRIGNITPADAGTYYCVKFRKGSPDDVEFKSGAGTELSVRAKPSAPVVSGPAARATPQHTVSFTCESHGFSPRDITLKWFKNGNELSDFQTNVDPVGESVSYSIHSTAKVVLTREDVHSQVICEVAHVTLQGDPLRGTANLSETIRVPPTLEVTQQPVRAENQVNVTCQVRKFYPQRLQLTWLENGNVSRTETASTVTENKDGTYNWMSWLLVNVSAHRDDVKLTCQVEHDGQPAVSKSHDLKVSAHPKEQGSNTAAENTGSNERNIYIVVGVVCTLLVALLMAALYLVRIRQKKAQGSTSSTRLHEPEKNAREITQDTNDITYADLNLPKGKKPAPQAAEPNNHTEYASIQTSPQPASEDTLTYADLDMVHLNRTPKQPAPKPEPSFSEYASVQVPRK
UniProt Q5TFQ8: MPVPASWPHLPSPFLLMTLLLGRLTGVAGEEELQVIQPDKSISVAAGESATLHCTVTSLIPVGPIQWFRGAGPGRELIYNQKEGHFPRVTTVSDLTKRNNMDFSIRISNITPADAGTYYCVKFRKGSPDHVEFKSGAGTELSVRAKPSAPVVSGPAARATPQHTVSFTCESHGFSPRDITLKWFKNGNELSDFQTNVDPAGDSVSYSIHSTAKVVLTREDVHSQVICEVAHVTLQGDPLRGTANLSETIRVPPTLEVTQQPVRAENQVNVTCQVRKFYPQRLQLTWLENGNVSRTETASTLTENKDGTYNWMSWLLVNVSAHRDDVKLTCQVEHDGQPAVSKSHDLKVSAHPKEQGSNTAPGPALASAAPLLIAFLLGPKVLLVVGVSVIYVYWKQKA

Tests used:
[1] = biological target: human SIRPa-Fc fusion protein (extracellular domain of human SIRPa fused to mouse Fc) (human) (UniProt P78324); assay: hybridoma screening ELISA, binding to human SIRPa
[2] = biological target: human SIRPa-Fc fusion protein (extracellular domain of human SIRPa fused to mouse Fc) (human) (UniProt P78324); assay: ELISA on coated SIRPa-Fc; 1H9 detected in the absence or presence of 50- or 100-times excess of mouse Kwar
[3] = biological target: human SIRPa-Fc fusion protein (extracellular domain of human SIRPa fused to mouse Fc) (human) (UniProt P78324); assay: ELISA on coated SIRPa-Fc; mouse 1H9 detected, bar without competitor
[4] = biological target: human SIRPa-Fc fusion protein (extracellular domain of human SIRPa fused to mouse Fc) (human) (UniProt P78324); assay: competition ELISA on coated SIRPa-Fc; mouse 1H9 detected, excess 1H9 (or 3C2) is the varied competitor
[5] = biological target: human SIRPa-Fc fusion protein (extracellular domain of human SIRPa fused to mouse Fc) (human) (UniProt P78324); assay: ELISA on coated SIRPa-Fc; 7E11 detected in the absence or presence of 50x or 100x Kwar
[6] = biological target: human SIRPa-Fc fusion protein (extracellular domain of human SIRPa fused to mouse Fc) (human) (UniProt P78324); assay: ELISA on coated SIRPa-Fc; 9B11 detected in the absence or presence of 50x or 100x Kwar
[7] = biological target: human SIRPa-Fc fusion protein (extracellular domain of human SIRPa fused to mouse Fc) (human) (UniProt P78324); assay: competition ELISA on coated SIRPa-Fc; Kwar is the varied competitor, the detected antibodies are 3C2 and 1H9
[8] = biological target: human SIRPa-Fc fusion protein (extracellular domain of human SIRPa fused to mouse Fc) (human) (UniProt P78324); assay: competition ELISA on coated SIRPa-Fc, against 3C2
[9] = biological target: human SIRPa-Fc fusion protein (extracellular domain of human SIRPa fused to mouse Fc) (human) (UniProt P78324); assay: competition ELISA on coated SIRPa-Fc; Kwar is the varied competitor, the detected antibodies are 7E11 and 9B11
[10] = biological target: human SIRPa-Fc fusion protein (extracellular domain of human SIRPa fused to mouse Fc) (human) (UniProt P78324); assay: competition ELISA on coated SIRPa-Fc; humanized 1H9 is the varied competitor, mouse 1H9 is detected
[11] = biological target: human SIRP-alpha variant 1 (V1) on monocytes and macrophages of V1 homozygous donors (human) (UniProt P78324); assay: binding to cells of genotyped donors (figure legend)
[12] = biological target: human SIRP-alpha variant 2 (V2) on monocytes and macrophages of V2 homozygous donors (human) (UniProt Q5TFQ8); assay: as above
[13] = biological target: human SIRP-alpha variant 1 (V1) on monocytes and macrophages of V1 homozygous donors (human) (UniProt P78324); assay: flow cytometry with 1H9-488 on monocytes and macrophages of genotyped donors
[14] = biological target: human SIRP-alpha variant 2 (V2) on monocytes and macrophages of V2 homozygous donors (human) (UniProt Q5TFQ8); assay: as above
[15] = biological target: human SIRPa-Fc fusion protein (extracellular domain of human SIRPa fused to mouse Fc) (human) (UniProt P78324); assay: competition ELISA on coated SIRPa-Fc, against mouse 1H9
[16] = biological target: human SIRP-alpha variant 1 (V1) on monocytes and macrophages of V1 homozygous donors (human) (UniProt P78324); assay: flow cytometry on monocytes; blocking of AF488-conjugated human CD47-Fc (1 ug/ml) binding by increasing Hu1H9-G1
[17] = biological target: human SIRP-alpha variant 2 (V2) on monocytes and macrophages of V2 homozygous donors (human) (UniProt Q5TFQ8); assay: as above
[18] = biological target: human SIRP-alpha variant 1 (V1) on monocytes and macrophages of V1 homozygous donors (human) (UniProt P78324); assay: flow cytometry on monocytes and macrophages of genotyped donors
[19] = biological target: human SIRP-alpha variant 2 (V2) on monocytes and macrophages of V2 homozygous donors (human) (UniProt Q5TFQ8); assay: as above
[20] = biological target: human SIRPa-Fc fusion protein (extracellular domain of human SIRPa fused to mouse Fc) (human) (UniProt P78324); assay: ELISA on coated SIRPa-Fc; 3C2 detected in the absence or presence of 50- or 100-times excess of mouse Kwar
[21] = biological target: human SIRPa-Fc fusion protein (extracellular domain of human SIRPa fused to mouse Fc) (human) (UniProt P78324); assay: ELISA on coated SIRPa-Fc; mouse 3C2 detected, bar without competitor
[22] = biological target: human SIRPa-Fc fusion protein (extracellular domain of human SIRPa fused to mouse Fc) (human) (UniProt P78324); assay: competition ELISA on coated SIRPa-Fc; mouse 3C2 detected, excess 3C2 (or 1H9) is the varied competitor
[23] = biological target: human SIRPa-Fc fusion protein (extracellular domain of human SIRPa fused to mouse Fc) (human) (UniProt P78324); assay: competition ELISA on coated SIRPa-Fc; humanized 3C2 is the varied competitor, mouse 3C2 is detected
[24] = biological target: human SIRPa-Fc fusion protein (extracellular domain of human SIRPa fused to mouse Fc) (human) (UniProt P78324); assay: competition ELISA on coated SIRPa-Fc, against mouse 3C2

Measured: binding

B1: 1H9 (parental mouse anti-human SIRPa monoclonal antibody) (antibody, V domains shown)
VH: QVQLQQPGAERVKPGASVKMSCKASGYTFTSYWITWVKQRPGQGLEWIGDIYPGSGSTNHIEKFKSKATLTVDTSSNTAYMQLSRLTSEDSAVYYCATGYGSSYGYFDYWGQGTTLTVSS
VL: DIQMTQSPASLSASVGETVTITCRASENIYSYLAWYQQKQGKSPQLLVYTAKTLAEGVPSRFSGSGSGTQFSLKINSLQPEDFGNYYCQHQYGPPFTFGSGTRLVIK
binds: [1] | [2] | [3] | [4]

B2: 7E11 (antibody, V domains shown)
VH: QVKLQESGAELVRPGSSVKLSCKASGYTFTSYWMHWVKQRPIQGLEWIGNIDPSDSDTHYNQKFKDKATLTVDNSSSTAYMQLSSLTSEDSAVYYCASYGNYGENAMDYWGQGTSVTVSS
VL: DILMTQTPLSLPVSLGDQASISCRSSQSIVHSYGNTYLEWYLQKPGQSPKLLIYKVSNRFSGVPDRFSGSGSGTDFTLKISRVEAEDLGVYYCFQGSHVPFTFGSGTKLEIK
binds: [5]

B3: 9B11 (antibody, V domains shown)
VH: EVQLQQSGAELVKPGASVKLSCTASGFNIKDYYIHWVKQRTEQGLEWIGRIDPEDGETKYAPKFQGKATITADTSSNTAYLQLNSLTSEDTAVYSCAKGGFAYWGQGTLVTVSA
VL: QIVLTQSPAIMSASPGEKVTLTCSASSSVSSSYLYWYQQKPGSSPKLWIYSTSNLASGVPARFSGSGSGTSYSLTISSMEAEDAASYFCHQWSSHPYTFGGGTKLEIK
binds: [6]

B4: KWar (anti-SIRPa antibody of WO 2015/138600) (antibody, V domains shown)
VH: EVQLVQSGAEVKKPGATVKISCKVSGFNIKDYYIHWVQQAPGKGLEWIGRIDPEDGETKYAPKFQDRATITADTSTDTAYMELSSLRSEDTAVYYCARWGAYWGQGTLVTVSS
VL: QIVLTQSPPTLSLSPGERVTLTCSASSSVSSSYLYWYQQKPGQAPKLWIYSTSNLASGVPARFSGSGSGTSYTLTISSLQPEDFAVYFCHQWSSYPRTFGAGTKLEIK
binds: [7] | [8] | [9]

B5: Humanized 1H9 (antibody, human IgG1, kappa, N297A, V domains shown)
VH: QVQLVQSGAEVKKPGASVKVSCKASGYTFTSYWITWVKQAPGQGLEWIGDIYPGSGSTNHIEKFKSKATLTVDTSISTAYMELSRLRSDDTAVYYCATGYGSSYGYFDYWGQGTLVTVSS
VL: DIQMTQSPSSLSASVGDRVTITCRASENIYSYLAWYQQKPGKAPKLLIYTAKTLAEGVPSRFSGSGSGTDFTLTISSLQPEDFATYYCQHQYGPPFTFGQGTKLEIKR
binds: [10] | [11] | [12] | [13] | [14] | [15] | [16] | [17] | [18] | [19]

B6: 3C2 (parental mouse anti-human SIRPa monoclonal antibody) (antibody, V domains shown)
VH: QVQLQQPGAELVRPGSSVKLSCKASGYTFTSYWMHWVKQRPIQGLEWIGNIDPSDSDTHYNQKFKDKATLTVDKSSSTAYMQLSSLTSEDSAVYYCARGYSKYYAMDYWGQGTSVTVSS
VL: DVLMTQTPLSLSVSLGDQASISCRSSQSIVHSYGNTYLEWYLQKPGQSPKLLIYKVSNRFSGVPDRFSGSGSGTDFTLKISRVEAEDLGVYYCFQGSHVPYTFGGGTKLEIK
binds: [1] | [20] | [21] | [22]

B7: Humanized 3C2 (antibody, human IgG1, kappa, N297A, V domains shown)
VH: QVQLVQSGAEVKKPGASVKVSCKASGYTFTSYWMHWVRQAPGQGLEWMGNIDPSDSDTHYNQKFKDRVTMTRDTSTSTVYMELSSLRSEDTAVYYCARGYSKYYAMDYWGQGTLVTVSS
VL: DIVMTQTPLSLSVTPGQPASISCRSSQSIVHSYGNTYLEWYLQKPGQSPQLLIYKVSNRFSGVPDRFSGSGSGTDFTLKISRVEAEDVGVYYCFQGSHVPYTFGQGTKLEIKR
binds: [23] | [24]
